The values that follow come from patent US20250171560A1.

Results are given in words; binding and its absence hold for the method and conditions named. A result given as binding can be weak or reduced; the word gives no strength.

B1: scFv S12D9 (phage display clone) (scFv)
scFv: QPVLTQDPVVSVALGQTVRITCQGDSLRSYYATWYQQKPGLAPVRVIFGKNSRPSGIPDRFSGSSSGNTASLTITGAQAEDEADYYCNSWDNSANHPVFGGGTKLTVLGGGGSGGGGSGGGGSEVQLVQSGAEVRKPGSSVKVSCKASGDNFNNYGITWVRQAPGQGLEWMGRLITVLGLDNYAQKFQGRLTITADESTGTAYMELTGLEPEDTAVYYCARDIMSPEAIDAFDVWGQGTLVTVSS
B2: scFv S9F5 (phage display clone) (scFv)
scFv: SYELTQPPSVSVAPGQTARITCGGDALPNNSVRWYQQKPGQAPVLVIYGNSERPSGIPERFSGSNSGNTATLTISGTQAEDEADYYCQVSDKSTKYSVFGGGTKLTVLGGGGSGGGGSGGGGSEVQLVESGGGLVQPGGSLRLSCAASGFTFSNYWMSWVRQAPGKGLEWVAGISASGGNKYYADSVKGRFTISRDNSKNTLYLQMNSLRAEDTAVYYCAKGPIQLKRHKYVLDYWGQGTLVTVSS
B3: scFv S5F2 (phage display clone) (scFv)
scFv: LPVLTQPPSASGTPGQRVTISCSGSSSNIGSNAVDWYQQLPGTAPKLLIYTNNRRPSGVPDRFSGSKSGTSGSLAISGLQFEDEADYYCAAWDDSLSGVIFGGGTKVTVLGGGGSGGGGSGGGGSQVQLVQSGAEVKKPGSSVKVSCKASEDTFSSYVISWVRQAPGQGLEWMGAFIPLLGRVHYAQEFQGRLTITADESTGTAYMELKGLRSDDTAMYYCARDQGFAGDDAFDIWGQGTMVTVSS
B4: scFv S12D4 (phage display clone) (scFv)
scFv: QPVLTQDPAVSVALGQTVRITCQGDSLRKYYASWYQQKPGQAPRLVMYDENDRPSGIPDRFSGSSSGNTASLTITGAQADDEADYYCNSRDSSGHHVVFGGGTKVTVLGGGGSGGGGSGGGGSQMQLVQSGAEVRRPGSSVKVSCKTSGGTLNNYDINWVRQAPGQGLEWMGWMNPTSGQADFAQKFQGRVSMTRDTSINTAFMELNTLRSEDTAVYYCVRRGGKYWGQGTLVTVSS
B5: scFv S4C7 (phage display clone) (scFv)
scFv: EIVLTQSASSLSASVGDRVTITCRTSQNIYRYLNWYQQKPGKAPKLLIFGASTLQTGVPSRFSGSGSGTDFTLTITGLQPEDLATYYCQHSFKLPFTFGQGTRLEIKGGGGSGGGGSGGGGSQMLVQSGAEVKRPGSSVTVSCETSGDTFSRYAISWLRQAPGQGLEWLGWISGNSGRADYAQNFQGRVTMTTDRSTSTAYLNLRSLRSDDTAVYYCARDAPMLFGVRGGGYYFGMDVWGQGTTVTVSS
B6: scFv S5D1 (phage display clone) (scFv)
scFv: QSVLTQPASVSGSPGQSVTISCTGTSSDVGGYNYVSWYQQHPGKPPKLMIYEVSKRPSGVPDRFSGSKSGNTASLTISGLQAEDEADYYCSSHTSSNTLIFGGGTKVTVLGGGGSGGGGSGGGGSEVQLVQSGAEVKKPGESLKISCKGSGYTFTNYWIGWVRQMPGKGLEWMGRIYPSDSYTNYSPSFQGQVTISADKSISTAYLQWSSLKASDTAMYYCARDLEPTHHYSWGQGTLVTVSS
B7: scFv S10E12 (phage display clone) (scFv)
scFv: DIQMTQSPSSLSASVGDRVTITCRASQDVSNYLNWYQQKPGKAPKLLIYGASNRQTGVPSRFSGSGSGTDFTLTISSLQPEDFATYYCQQEDRFPTTFGQGTKVEIKGGGGSGGGGSGGGGSEVQLVQSGAEVRKPGSSVKVSCKASGDNFNNYGITWVRQAPGQGLEWMGRLITVLGLDNYAQKFQGRLTITADESTGTAYMELTGLEPEDTAVYYCARDIMSPEAIDAFDVWGQGTLVTVSS

The target of the assay is recombinantly expressed PAP (ACPP-His) (Homo sapiens (Human)). The assay is described as follows: monoclonal identification of phage display scFv clones on solid phase coated antigen.
For the molecule B1, the binding result was “binds”. Turning to B2, the binding result was “binds”. As to B3, the binding entry is on record as “binds”. B4: the binding result was “binds”. As for B5, the binding entry is “binds”. As to B6, the binding entry is “binds”. For the molecule B7, the binding result is recorded as “binds”.
